Results from paper PMC4545792.
Like-named read-outs stand apart in the source and are kept apart here. These are yes or no findings as the source states them, for the method shown. Binding seen in cells or lysates may run through a third protein. Some results given as binding are weak or reduced against the parent protein; the word gives no strength. Sequences can lack the tags named with a protein.

Sequences of proteins named here, by UniProt entry; tags and fusion partners are left off. Residues count along the entry.
UniProt Q61102, residues 23-752: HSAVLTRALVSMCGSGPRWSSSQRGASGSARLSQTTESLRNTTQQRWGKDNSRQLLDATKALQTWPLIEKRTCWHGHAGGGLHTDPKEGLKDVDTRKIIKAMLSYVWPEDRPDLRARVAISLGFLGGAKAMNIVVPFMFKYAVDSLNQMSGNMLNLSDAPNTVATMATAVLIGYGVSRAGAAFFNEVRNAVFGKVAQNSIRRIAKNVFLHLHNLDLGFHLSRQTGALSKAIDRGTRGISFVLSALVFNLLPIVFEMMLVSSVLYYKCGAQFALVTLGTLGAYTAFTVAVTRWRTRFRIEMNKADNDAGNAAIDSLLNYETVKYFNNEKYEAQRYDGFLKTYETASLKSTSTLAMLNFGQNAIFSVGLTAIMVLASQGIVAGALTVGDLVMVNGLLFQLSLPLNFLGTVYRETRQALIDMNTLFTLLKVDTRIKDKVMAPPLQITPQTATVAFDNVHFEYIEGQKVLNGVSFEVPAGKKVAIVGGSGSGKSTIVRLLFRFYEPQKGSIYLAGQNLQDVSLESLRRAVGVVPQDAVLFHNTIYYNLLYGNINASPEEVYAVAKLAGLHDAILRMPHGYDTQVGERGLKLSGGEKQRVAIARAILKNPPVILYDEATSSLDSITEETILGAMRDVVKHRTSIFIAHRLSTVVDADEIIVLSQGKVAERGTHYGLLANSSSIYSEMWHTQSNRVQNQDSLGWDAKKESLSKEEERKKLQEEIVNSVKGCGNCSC

Tests used:
Test in all cases: co-IP; FLAG elutions of the anti-FLAG affinity purification from mitochondrial lysate of induced MEL cells (empty vector, WT FECH, M76H, E343K), immunoblots probed for abcb7, abcb10, sucla2, ppox and fech
[1] = biological target: T1, FLAG-FECH E343K variant (human ferrochelatase) (human) (UniProt P22830)
T1 sequence: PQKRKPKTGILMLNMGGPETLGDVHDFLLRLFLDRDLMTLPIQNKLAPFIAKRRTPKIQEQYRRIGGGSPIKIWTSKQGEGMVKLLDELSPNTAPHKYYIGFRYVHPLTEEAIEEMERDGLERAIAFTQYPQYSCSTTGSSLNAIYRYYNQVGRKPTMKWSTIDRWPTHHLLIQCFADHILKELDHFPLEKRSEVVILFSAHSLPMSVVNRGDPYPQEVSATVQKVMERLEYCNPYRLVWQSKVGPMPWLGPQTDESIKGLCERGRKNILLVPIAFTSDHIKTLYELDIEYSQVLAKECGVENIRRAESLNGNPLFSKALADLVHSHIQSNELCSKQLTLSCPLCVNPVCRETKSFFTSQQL

[2] = biological target: T2, FLAG-FECH (human ferrochelatase, wild type) (human) (UniProt P22830)
T2 sequence: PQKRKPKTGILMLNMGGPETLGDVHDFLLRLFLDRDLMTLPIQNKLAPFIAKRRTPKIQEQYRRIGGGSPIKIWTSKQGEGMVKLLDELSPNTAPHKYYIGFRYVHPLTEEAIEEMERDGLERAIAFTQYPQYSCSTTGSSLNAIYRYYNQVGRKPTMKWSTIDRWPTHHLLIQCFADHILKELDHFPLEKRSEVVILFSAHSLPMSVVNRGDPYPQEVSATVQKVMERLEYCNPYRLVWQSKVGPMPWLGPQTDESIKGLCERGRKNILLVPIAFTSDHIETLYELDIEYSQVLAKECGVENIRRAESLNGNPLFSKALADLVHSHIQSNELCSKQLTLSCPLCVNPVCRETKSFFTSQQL

[3] = biological target: T3, FLAG-FECH M76H variant (human ferrochelatase) (human) (UniProt P22830)
T3 sequence: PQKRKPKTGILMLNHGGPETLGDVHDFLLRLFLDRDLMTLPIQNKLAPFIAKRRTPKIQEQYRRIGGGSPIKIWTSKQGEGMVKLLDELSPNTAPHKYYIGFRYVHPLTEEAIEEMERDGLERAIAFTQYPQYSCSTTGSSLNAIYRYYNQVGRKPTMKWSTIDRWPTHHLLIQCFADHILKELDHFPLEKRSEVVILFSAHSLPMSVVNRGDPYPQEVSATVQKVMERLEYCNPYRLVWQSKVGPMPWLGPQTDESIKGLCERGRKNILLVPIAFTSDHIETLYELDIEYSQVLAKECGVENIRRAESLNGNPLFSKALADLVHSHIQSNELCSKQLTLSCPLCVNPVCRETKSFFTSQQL

[4] = biological target: T1, FLAG-FECH E343K variant (human ferrochelatase) (human); remark: listed apart in the source
[5] = biological target: T2, FLAG-FECH (human ferrochelatase, wild type) (human); remark: listed apart in the source
[6] = biological target: T3, FLAG-FECH M76H variant (human ferrochelatase) (human); remark: listed apart in the source

Measured: binding

mouse abcb7 (from UniProt Q61102 23-752)
binds: [1] | [2] | [3]

B1: mouse abcb10 (protein, UniProt Q9JI39 83-715)
chain: AGPRAAHPLFARLQGAAATGVRDLGNDSQRRPAATGRSEVWKLLGLVRPERGRLSAAVGFLAVSSVITMSAPFFLGRIIDVIYTNPSEGYGDSLTRLCAVLTCVFLCGAAANGIRVYLMQSSGQSIVNRLRTSLFSSILRQEVAFFDKTRTGELINRLSSDTALLGRSVTENLSDGLRAGAQASVGVGMMFFVSPSLATFVLSVVPPISVLAVIYGRYLRKLSKATQDSLAEATQLAEERIGNIRTIRAFGKEMTEVEKYTGRVDQLLQLAQKEALARAGFFGAAGLSGNLIVLSVLYKGGLLMGSAHMTVGELSSFLMYAFWVGLSIGGLSSFYSELMKGLGAGGRLWELLERQPRLPFNEGMVLDEKTFQGALEFRNVHFTYPARPEVSVFQDFSLSIPSGSVTALVGPSGSGKSTVVSLLLRLYDPNSGTVSLDGHDIRQLNPVWLRSKIGTVSQEPVLFSCSVAENIAYGADNLSSVTAQQVERAAEVANAAEFIRSFPQGFDTVVGEKGILLSGGQKQRIAIARALLKNPKILLLDEATSALDAENEHLVQEALDRLMEGRTVLIIAHRLSTIKNANFVAVLDHGKICEHGTHEELLLKPNGLYRKLMNKQSFLSYNGAEQFLEPARA
binds: [4] | [5] | [6]

B2: mouse protoporphyrinogen oxidase (enzyme, UniProt P51175 1-477)
chain: MGRTVIVLGGGISGLAASYHLIRGPSPPKVILVEGSKRLGGWIRSIRGSDGAIFELGPRGIRPAGALGARTLLLVSELGLESEVLPVRGDHPAAQNRFLYVGGTLHPLPSGLRGLLRPSPPFSKPLFWAGLRELLKPRGKEPDETVHSFAQRRLGPEVASLAMDSLCRGVFAGNSRELSIRSCFPSLFQAEQTHRSILLGLLLGAGQSPQPDSSLIRQARAERWSQWSLRGGLEVLPQALHNHLASKGVTVLSGQPVCGLSLQPEGRWKVSLGDSSLEADHIISAIPASELSKLLPAEAAPLARILSTIKAVSVAVVNLQYRGACLPVQGFGHLVPSSEDPTVLGIVYDSVAFPEQDGNPPSLRVTVMLGGYWLQKLKAAGHQLSPELFQQQAQEAAATQLGLKEPPSHCLVHLHKNCIPQYTIGHWQKLDSAMQFLTAQRLPLTLAGASYEGVAVNDCIESGRQAAVAVLGTESNS
binds: [4] | [5] | [6]

B3: mouse succinyl-CoA synthetase beta subunit (sucla2) (enzyme, UniProt Q9Z2I9 54-463)
chain: SLHEYLSMELLQEAGVSVPKGFVAKSSDEAYAIAKKLGSKDVVIKAQVLAGGRGKGTFTSGLKGGVKIVFSPEEAKAVSSQMIGQKLITKQTGEKGRICNQVLVCERKYPRREYYFAITMERSFQGPVLIGSAQGGVNIEDVAAENPEAIVKEPIDIVEGIKKEQAVTLAQKMGFPSNIVDSAAENMIKLYNLFLKYDATMVEINPMVEDSDGKVLCMDAKINFDSNSAYRQKKIFDLQDWSQEDERDKEAANADINYIGLDGSIGCLVNGAGLAMATMDIIKLHGGTPANFLDVGGGATVQQVTEAFKLITSDKKVQAILVNIFGGIMRCDVIAQGIVMAVKDLEIRIPVVVRLQGTRVDDAKALIADSGLKILACDDLDEAAKMVVKLSEIVTLAKEAHVDVKFQLPI
binds: [4] | [5] | [6]
